Results on two substances are retold here after doi:10.1101/2022.09.22.509106.

Chains of the proteins cited; added tags and fusions are not shown. Lines headed by an entry give the natural chain unless they say otherwise; changes in a name come on top.
UniProt P98086: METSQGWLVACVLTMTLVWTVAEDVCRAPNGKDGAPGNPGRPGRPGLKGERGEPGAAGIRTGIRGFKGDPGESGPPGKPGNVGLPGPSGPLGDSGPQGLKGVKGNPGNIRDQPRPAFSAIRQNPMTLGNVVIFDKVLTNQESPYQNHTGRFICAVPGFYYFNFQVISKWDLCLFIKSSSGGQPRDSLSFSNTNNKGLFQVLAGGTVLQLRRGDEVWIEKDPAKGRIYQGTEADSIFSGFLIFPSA
UniProt P31720: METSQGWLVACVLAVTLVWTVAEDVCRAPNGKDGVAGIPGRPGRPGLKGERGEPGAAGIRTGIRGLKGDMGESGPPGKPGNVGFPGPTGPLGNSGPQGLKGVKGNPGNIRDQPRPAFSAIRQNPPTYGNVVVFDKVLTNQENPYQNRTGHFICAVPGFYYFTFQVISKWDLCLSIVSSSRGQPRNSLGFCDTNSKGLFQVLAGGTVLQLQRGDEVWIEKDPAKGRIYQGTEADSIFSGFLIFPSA

In assay [1] the target is T1, Nptx2 in mouse brain lysate (mouse (endogenous in brain)) (UniProt O70340).
T1 sequence: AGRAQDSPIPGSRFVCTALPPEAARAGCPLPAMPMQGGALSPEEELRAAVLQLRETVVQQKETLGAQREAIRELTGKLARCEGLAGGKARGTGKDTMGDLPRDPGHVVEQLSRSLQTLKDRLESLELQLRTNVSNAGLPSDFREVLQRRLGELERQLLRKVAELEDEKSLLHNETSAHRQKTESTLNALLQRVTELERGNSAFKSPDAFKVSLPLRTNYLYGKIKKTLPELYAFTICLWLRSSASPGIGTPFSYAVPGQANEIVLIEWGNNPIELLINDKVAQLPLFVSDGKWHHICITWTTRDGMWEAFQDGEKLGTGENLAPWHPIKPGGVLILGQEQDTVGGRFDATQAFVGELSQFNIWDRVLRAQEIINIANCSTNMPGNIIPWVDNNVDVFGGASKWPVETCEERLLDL
The assay is described as follows: proximity ligation.

For assay [2], the target named is T2, neuronal pentraxin 2 (Nptx2), purified recombinant, His-tagged (UniProt P47972).
T2 sequence: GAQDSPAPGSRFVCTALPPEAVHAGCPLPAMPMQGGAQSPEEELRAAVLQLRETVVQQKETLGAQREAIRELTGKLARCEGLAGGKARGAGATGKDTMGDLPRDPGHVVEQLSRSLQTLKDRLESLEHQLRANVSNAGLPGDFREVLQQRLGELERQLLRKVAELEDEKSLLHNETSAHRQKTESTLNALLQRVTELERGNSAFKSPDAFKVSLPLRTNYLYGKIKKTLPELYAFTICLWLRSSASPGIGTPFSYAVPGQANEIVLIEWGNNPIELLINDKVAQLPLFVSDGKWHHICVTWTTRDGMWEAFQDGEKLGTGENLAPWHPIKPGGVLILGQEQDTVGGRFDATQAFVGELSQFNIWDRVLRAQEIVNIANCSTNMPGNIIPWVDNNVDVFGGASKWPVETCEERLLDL
The assay is described as follows: proximity ligation.

No constants are given. Whether binding was seen depends on the method and setting. Binding seen in cells or lysates may run through a third protein. Some results given as binding are weak or reduced against the parent protein; the word gives no strength. For some assays here: Where a sequence is shown, tags or fusion partners need not be part of it.

Consider “C1q in mouse brain lysate (from UniProt P98086 23-245; P14106 26-253; Q02105 30-246) (complex)”, for which the binding entry in assay [1] is on record as “binds”.

As for “C1q in the medium of rat neuron-microglia co-cultures (from UniProt P31720 23-245; P31721 26-253; P31722 29-245) (complex)”, the binding result in assay [2] is “binds”.
